By UniProt entry, the sequences of proteins in these tests, tags left out.
UniProt Q93009: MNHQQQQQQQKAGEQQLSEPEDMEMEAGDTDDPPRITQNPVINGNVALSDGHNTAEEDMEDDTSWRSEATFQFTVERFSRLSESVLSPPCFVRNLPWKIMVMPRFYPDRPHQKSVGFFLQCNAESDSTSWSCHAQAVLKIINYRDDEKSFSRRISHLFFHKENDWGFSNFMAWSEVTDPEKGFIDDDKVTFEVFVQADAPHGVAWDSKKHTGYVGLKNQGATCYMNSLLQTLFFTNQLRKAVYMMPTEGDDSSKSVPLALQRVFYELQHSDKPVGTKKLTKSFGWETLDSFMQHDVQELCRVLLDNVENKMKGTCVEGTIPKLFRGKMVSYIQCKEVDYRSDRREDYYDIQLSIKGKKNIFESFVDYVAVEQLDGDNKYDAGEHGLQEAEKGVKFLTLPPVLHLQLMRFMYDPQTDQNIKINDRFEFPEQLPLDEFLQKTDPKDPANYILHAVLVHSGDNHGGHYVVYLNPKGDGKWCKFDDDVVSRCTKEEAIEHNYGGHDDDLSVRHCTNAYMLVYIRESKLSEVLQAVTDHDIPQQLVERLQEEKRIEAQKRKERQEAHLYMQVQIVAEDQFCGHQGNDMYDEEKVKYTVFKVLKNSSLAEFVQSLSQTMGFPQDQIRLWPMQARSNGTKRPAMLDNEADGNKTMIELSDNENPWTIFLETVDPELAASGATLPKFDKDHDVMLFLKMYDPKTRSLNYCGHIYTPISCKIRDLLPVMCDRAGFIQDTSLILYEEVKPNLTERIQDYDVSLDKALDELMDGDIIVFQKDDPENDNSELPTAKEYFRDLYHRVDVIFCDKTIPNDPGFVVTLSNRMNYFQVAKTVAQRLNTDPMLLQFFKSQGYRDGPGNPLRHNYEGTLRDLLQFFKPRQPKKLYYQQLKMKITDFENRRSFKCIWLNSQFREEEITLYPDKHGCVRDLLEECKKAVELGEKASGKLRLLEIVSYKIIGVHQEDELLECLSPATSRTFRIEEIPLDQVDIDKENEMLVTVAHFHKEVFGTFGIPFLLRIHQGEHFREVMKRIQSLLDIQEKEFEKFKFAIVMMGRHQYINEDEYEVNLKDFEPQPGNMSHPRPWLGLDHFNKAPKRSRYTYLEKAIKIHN
UniProt O00571: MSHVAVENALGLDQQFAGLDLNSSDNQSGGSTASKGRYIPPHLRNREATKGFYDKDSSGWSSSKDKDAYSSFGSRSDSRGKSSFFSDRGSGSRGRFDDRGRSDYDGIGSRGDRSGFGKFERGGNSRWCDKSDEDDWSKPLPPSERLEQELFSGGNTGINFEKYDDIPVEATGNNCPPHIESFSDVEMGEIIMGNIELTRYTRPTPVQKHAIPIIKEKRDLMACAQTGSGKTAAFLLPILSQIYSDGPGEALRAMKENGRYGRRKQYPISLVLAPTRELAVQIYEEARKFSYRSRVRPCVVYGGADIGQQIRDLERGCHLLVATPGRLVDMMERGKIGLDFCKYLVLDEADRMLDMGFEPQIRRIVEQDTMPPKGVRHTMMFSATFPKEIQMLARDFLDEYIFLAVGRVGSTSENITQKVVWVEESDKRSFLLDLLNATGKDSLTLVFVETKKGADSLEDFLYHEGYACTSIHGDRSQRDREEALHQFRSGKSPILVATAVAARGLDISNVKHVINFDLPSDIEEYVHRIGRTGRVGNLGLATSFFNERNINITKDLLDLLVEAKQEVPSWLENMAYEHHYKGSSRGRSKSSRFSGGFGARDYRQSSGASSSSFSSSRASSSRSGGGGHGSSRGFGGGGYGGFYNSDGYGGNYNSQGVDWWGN
UniProt Q9Y265: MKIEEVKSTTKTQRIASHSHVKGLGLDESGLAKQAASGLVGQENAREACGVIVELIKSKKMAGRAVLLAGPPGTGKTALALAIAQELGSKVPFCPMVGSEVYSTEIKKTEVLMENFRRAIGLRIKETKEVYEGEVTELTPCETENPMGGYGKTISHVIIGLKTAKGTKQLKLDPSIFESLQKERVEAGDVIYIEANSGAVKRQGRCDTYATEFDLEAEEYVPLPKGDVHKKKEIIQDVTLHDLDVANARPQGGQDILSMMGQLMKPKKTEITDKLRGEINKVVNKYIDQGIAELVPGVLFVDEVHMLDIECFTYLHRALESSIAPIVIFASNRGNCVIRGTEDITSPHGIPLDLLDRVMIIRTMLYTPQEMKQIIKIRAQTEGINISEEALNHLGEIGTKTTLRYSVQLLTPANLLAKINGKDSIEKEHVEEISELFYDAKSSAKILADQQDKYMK

According to doi:10.1101/2023.01.11.523622:

Target: GST-USP7 (ubiquitin specific peptidase 7) (UniProt Q93009)
Assay: affinity purification with mass spectrometry

DEAD-box RNA helicase DDX3X, endogenous (from UniProt O00571 1-662)
binding: binds

DNA helicase RUVBL1 (from UniProt Q9Y265 1-456)
binding: binds

B1: DEAH box RNA helicase DHX40 (protein, UniProt Q8IX18 1-779)
chain: MSRFPAVAGRAPRRQEEGERSRDLQEERLSAVCIADREEKGCTSQEGGTTPTFPIQKQRKKIIQAVRDNSFLIVTGNTGSGKTTQLPKYLYEAGFSQHGMIGVTQPRKVAAISVAQRVAEEMKCTLGSKVGYQVRFDDCSSKETAIKYMTDGCLLKHILGDPNLTKFSVIILDEAHERTLTTDILFGLLKKLFQEKSPNRKEHLKVVVMSATMELAKLSAFFGNCPIFDIPGRLYPVREKFCNLIGPRDRENTAYIQAIVKVTMDIHLNEMAGDILVFLTGQFEIEKSCELLFQMAESVDYDYDVQDTTLDGLLILPCYGSMTTDQQRRIFLPPPPGIRKCVISTNISATSLTIDGIRYVVDGGFVKQLNHNPRLGLDILEVVPISKSEALQRSGRAGRTSSGKCFRIYSKDFWNQCMPDHVIPEIKRTSLTSVVLTLKCLAIHDVIRFPYLDPPNERLILEALKQLYQCDAIDRSGHVTRLGLSMVEFPLPPHLTCAVIKAASLDCEDLLLPIAAMLSVENVFIRPVDPEYQKEAEQRHRELAAKAGGFNDFATLAVIFEQCKSSGAPASWCQKHWIHWRCLFSAFRVEAQLRELIRKLKQQSDFPKETFEGPKHEVLRRCLCAGYFKNVARRSVGRTFCTMDGRGSPVHIHPSSALHEQETKLEWIIFHEVLVTTKVYARIVCPIRYEWVRDLLPKLHEFNAHDLSSVARREVREDARRRWTNKENVKQLKDGISKDVLKKMQRRNDDKSISDARARFLERKQQRTQDHSDTRKETG
binding: binds

B2: mini-chromosome complex (MCM) subunit MCM5 (protein, UniProt P33992 1-734)
chain: MSGFDDPGIFYSDSFGGDAQADEGQARKSQLQRRFKEFLRQYRVGTDRTGFTFKYRDELKRHYNLGEYWIEVEMEDLASFDEDLADYLYKQPAEHLQLLEEAAKEVADEVTRPRPSGEEVLQDIQVMLKSDASPSSIRSLKSDMMSHLVKIPGIIIAASAVRAKATRISIQCRSCRNTLTNIAMRPGLEGYALPRKCNTDQAGRPKCPLDPYFIMPDKCKCVDFQTLKLQELPDAVPHGEMPRHMQLYCDRYLCDKVVPGNRVTIMGIYSIKKFGLTTSRGRDRVGVGIRSSYIRVLGIQVDTDGSGRSFAGAVSPQEEEEFRRLAALPNVYEVISKSIAPSIFGGTDMKKAIACLLFGGSRKRLPDGLTRRGDINLLMLGDPGTAKSQLLKFVEKCSPIGVYTSGKGSSAAGLTASVMRDPSSRNFIMEGGAMVLADGGVVCIDEFDKMREDDRVAIHEAMEQQTISIAKAGITTTLNSRCSVLAAANSVFGRWDETKGEDNIDFMPTILSRFDMIFIVKDEHNEERDVMLAKHVITLHVSALTQTQAVEGEIDLAKLKKFIAYCRVKCGPRLSAEAAEKLKNRYIIMRSGARQHERDSDRRSSIPITVRQLEAIVRIAEALSKMKLQPFATEADVEEALRLFQVSTLDAALSGTLSGVEGFTSQEDQEMLSRIEKQLKRRFAIGSQVSEHSIIKDFTKQKYPEHAIHKVLQLMLRRGEIQHRMQRKVLYRLK
binding: binds

These are yes or no findings as the source states them, for the method shown. In cells and extracts the contact can be indirect. Here binding means that the protein was enriched with, or labelled near, the bait; the list need not be complete.
